Among the data in article PMC9006038 are binding values, retold here.

The chains behind the UniProt entries cited, without tags or fusion partners. Residues count along the entry.
UniProt P02545, residues 1-646: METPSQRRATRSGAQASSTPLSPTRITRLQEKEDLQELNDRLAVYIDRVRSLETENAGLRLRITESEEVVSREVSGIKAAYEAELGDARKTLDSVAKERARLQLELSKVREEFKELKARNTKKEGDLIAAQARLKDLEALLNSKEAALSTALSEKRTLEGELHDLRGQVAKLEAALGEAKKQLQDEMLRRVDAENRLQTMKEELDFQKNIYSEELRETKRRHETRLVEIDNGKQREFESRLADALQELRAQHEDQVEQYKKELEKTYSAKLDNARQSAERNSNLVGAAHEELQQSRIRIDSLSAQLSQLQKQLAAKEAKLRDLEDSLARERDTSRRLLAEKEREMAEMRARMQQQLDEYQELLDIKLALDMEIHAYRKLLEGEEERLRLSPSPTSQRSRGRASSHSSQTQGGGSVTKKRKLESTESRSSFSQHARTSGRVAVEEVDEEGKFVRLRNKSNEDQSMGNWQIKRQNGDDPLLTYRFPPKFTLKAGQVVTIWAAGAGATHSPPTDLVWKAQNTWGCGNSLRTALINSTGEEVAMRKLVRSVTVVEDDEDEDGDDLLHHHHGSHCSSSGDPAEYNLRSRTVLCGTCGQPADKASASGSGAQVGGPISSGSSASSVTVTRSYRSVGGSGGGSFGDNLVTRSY

Numbering of substitutions follows the chain as printed. Results are given in words; binding and its absence hold for the method and conditions named. For some of these results: In cells and extracts the contact can be indirect. Some binding calls cover weakened binding; strength is not graded here. Where a sequence is shown, tags or fusion partners need not be part of it.

Test [1] deals with T1, GFP:Repo-Man^IRCE mutant (UniProt Q69YH5).
T1 sequence: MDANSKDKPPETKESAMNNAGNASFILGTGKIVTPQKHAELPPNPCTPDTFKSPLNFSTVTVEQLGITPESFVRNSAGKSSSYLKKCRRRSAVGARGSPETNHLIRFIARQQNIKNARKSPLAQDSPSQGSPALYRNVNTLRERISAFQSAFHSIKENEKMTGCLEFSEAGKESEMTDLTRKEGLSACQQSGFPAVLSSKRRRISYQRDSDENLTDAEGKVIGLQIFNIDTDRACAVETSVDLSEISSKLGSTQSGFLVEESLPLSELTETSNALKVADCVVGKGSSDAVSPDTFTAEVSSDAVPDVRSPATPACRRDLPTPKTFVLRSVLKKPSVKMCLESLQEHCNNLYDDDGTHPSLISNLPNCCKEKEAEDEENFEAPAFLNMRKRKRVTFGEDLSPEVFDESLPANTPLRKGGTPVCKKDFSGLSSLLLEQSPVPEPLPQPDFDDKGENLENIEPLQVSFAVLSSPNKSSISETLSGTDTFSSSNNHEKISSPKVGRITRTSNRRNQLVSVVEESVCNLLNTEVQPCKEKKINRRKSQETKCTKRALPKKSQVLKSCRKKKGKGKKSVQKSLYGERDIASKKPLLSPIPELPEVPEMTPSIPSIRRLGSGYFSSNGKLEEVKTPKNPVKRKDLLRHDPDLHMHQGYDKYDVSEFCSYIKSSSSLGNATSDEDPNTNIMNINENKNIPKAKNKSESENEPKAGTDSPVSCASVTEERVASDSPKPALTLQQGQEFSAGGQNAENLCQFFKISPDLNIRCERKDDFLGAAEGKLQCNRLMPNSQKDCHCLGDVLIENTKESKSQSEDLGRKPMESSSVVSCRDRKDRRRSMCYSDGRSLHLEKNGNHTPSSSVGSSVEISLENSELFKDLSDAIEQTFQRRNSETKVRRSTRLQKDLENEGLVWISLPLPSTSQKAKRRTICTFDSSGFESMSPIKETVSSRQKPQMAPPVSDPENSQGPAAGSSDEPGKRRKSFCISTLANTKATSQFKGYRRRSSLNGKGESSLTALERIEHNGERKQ
Description: proximity ligation; Duolink PLA in fixed HeLa cells transfected with GFP:Repo-Man wt or IRCE; primary antibodies anti-GFP (mouse) and anti-lamin A/C S22ph (rabbit); PLA signals counted.

Test [2] has as its target T2, GFP:Repo-Man^wt (UniProt Q69YH5).
T2 sequence: T1 sequence with R762K
Described as above.

Test [3] has as its target T1, GFP:Repo-Man^IRCE mutant. Description: pull-down; GFP-Repo-Man constructs pulled down from transfected HeLa lysate on GFP-TRAP beads (with 20 mM NEM, washed three times), then incubated with purified recombinant His-lamin A in PBS for 2 h at 4°C, washed three times with cold PBS; western blot of unbound and bound fractions with anti-GFP and lamin A antibodies; both purified. A general note: A western blot detects proteins with antibodies after separation by electrophoresis.

Test [4] addresses T2, GFP:Repo-Man^wt. Described as above.

“lamin A S22ph (endogenous, HeLa) (from UniProt P02545 1-646)”: the binding entry in the test with GFP:Repo-Man^IRCE mutant [1] and with GFP:Repo-Man^wt [2] was “binds” throughout.

Consider “recombinant human lamin A protein (His-lamin A) (from UniProt P02545 1-646)”, for which the binding entry with GFP:Repo-Man^IRCE mutant [3] and with GFP:Repo-Man^wt [4] was “binds” in each case.
